Source: PMC5123617
Results are given in words; binding and its absence hold for the method and conditions named. Binding seen in cells or lysates may run through a third protein. Some results given as binding are weak or reduced against the parent protein; the word gives no strength.

Sequences of proteins named here, by UniProt entry; tags and fusion partners are left off.
UniProt Q80XJ2: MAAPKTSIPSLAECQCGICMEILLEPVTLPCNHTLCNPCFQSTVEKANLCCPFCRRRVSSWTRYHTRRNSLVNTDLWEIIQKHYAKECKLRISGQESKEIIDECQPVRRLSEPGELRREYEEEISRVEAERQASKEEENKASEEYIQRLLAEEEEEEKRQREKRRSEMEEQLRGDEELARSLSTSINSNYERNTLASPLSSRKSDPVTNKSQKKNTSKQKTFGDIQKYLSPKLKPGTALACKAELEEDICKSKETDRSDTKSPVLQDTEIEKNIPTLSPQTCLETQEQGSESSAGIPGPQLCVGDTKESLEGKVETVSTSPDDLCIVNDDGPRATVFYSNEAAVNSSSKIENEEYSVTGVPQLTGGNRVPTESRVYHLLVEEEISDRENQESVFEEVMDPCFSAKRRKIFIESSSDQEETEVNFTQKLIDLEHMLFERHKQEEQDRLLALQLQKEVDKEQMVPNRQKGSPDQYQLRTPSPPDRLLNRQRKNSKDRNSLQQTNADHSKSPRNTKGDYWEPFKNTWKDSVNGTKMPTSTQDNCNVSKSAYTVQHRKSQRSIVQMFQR

Target: 3xFlag-H2AX wild type (H2AX-WT) (mouse) (UniProt P27661)
Test: co-IP; Flag-tagged H2AX precipitated with anti-Flag M2 affinity gel overnight at 4°C from 250 ug of lysate (p300 lysis buffer: 20 mM NaH2PO4, 250 mM NaCl, 30 mM NaPPi, 0.1% NP-40, 5 mM EDTA; sonicated) of wt and junD-/- fibroblasts co-transfected with HA-ubiquitin; four washes; blot with RNF168-specific antibody

Substance: E3 ubiquitin ligase RNF168 (from UniProt Q80XJ2 1-565) (enzyme)
- binding: binds
